# Laboratory results reported in PubChem BioAssay AID493014 (National Center for Advancing Translational Sciences (NCATS), 2011).
# Some of the results follow. Further columns of the screen follow, without active or inactive calls. Most of these compounds were active or inconclusive in the main read-out, so they are no random draw. Words in brackets tell the shape of the fitted curve; partial curves, single points and poor fits give uncertain potencies.
# Test: qHTS Assay to Find Inhibitors of Chronic Active B-Cell Receptor Signaling
# Settings: ABC-DLBCL IkBa-CBG/CBR reporter, luminescence ratio (green luciferase fused to IkBa over red control in TMD8 lymphoma cells), 4 h
# How it was run: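 TMD8 ABC-DLBCL cells carrying doxycycline-inducible green luciferase fused to IkappaBalpha plus unfused red luciferase were exposed to compounds (up to 46 uM) for 4 hrs at 37C. Activity came from the overlap-corrected green/red luminescence ratio.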
# [1] = measured here: CBR red luminescence, cell number
# [2] = measured here: IkBa-CBG green luminescence
SMILES,AC50 [1],AC50 [2]
CCOC(=O)c1ccc(N2C(=O)CC(NC3CCN(C(=O)c4cccc(Cl)c4)CC3)C2=O)cc1 (configuration not stated),"29.1 µM [rising, single point]",
O=C(Nc1cc2ccccc2oc1=O)C1CCCCC1,"1 µM [falling, full curve]",
COCCNC(=O)CCc1c(C)nc2c(c(C)nn2-c2ccc(C)c(C)c2)c1C,"7.08 µM [rising, partial curve, poor fit]",
C=CCCCCCCCCC(=O)N1CCN(c2cc3c(cc2F)c(=O)c(C(=O)O)cn3CC)CC1,"0.631 µM [rising, full curve, poor fit]",
Cc1cc(C)cc(C(=O)NC(CC(N)=O)c2ccc(NCCN3CCOCC3)c([N+](=O)[O-])c2)c1 (configuration not stated),"5.62 µM [falling, full curve]",
CC12CCC(C(=O)NC3CCCCC3)([C@H](Br)C1=O)C2(C)C (some centres not stated),"0.631 µM [rising, full curve, poor fit]",
N#Cc1ccc(C(=O)CSc2nnc(-c3ccc(C(F)(F)F)cn3)s2)cc1,"35.5 µM [falling, single point]","5.62 µM [falling, single point]"
O=c1oc(-c2ccc(Br)cc2)nc2ccccc12,"0.891 µM [falling, full curve]",
O=C(/C(=C/O)N=Nc1ccccc1)c1ccc(Cl)cc1,"17.8 µM [rising, partial curve, poor fit]",
CCOC(=O)c1ccc(NC(=S)N2CCN(CCN=CC3=C(O)CC(C)(C)CC3=O)CC2)cc1,"15.8 µM [falling, single point]","15.8 µM [rising, partial curve, poor fit]"
Cc1ccc(S(=O)(=O)N(C)CC(=O)O/N=C(\N)c2cccc(Br)c2)cc1,"31.6 µM [rising, single point]",
COc1ccc(CC(=O)O/N=C(\N)c2ccncc2)cc1,"11.2 µM [rising, partial curve]",
Cc1ccc2nc(SCC(=O)NCc3ccco3)c(C#N)cc2c1,"5.8 µM [falling, single point]",
Cc1cccc(-n2c(C)cc(/C=N\NC(=O)c3ccco3)c2C)c1,"3.55 µM [falling, partial curve, poor fit]","5.01 µM [rising, partial curve, poor fit]"
O=C(NCCc1c[nH]c2ccccc12)[C@@H]1C[C@H]1[C@@H](NP(=O)(c1ccccc1)c1ccccc1)c1ccccc1,"23.1 µM [falling, single point]",
CCCCn1c(-c2cccc(C)c2)nc2cc3[nH]c(=O)c(C(C)C)nc3cc21,"11.2 µM [falling, partial curve]","8.91 µM [rising, partial curve, poor fit]"
Cc1ccc(-n2nc(C)cc2Nc2ncc(Cl)cc2Cl)cc1,"29.1 µM [rising, single point]",
O=Cc1cnc(N2CCN(c3ccccc3)CC2)s1,"12.6 µM [rising, partial curve, poor fit]",
Cc1cccn2c(=O)c3cc(S(=O)(=O)c4ccccc4)c(=N)n(Cc4ccc(F)cc4)c3nc12,"6.31 µM [falling, partial curve, poor fit]",
Cc1ccc(-n2nc3c(c2NC(=O)c2c(F)cccc2Cl)CS(=O)(=O)C3)cc1C,"35.5 µM [falling, single point]",

SMILES,AC50 [1],AC50 [2]
COc1ccc(C(=O)Nc2ccc(NS(=O)(=O)c3ccccc3)cc2)cc1OC,"35.5 µM [falling, single point]",
Cc1ccc(N2C(=O)c3ccccc3C2O)nc1 (configuration not stated),"16.4 µM [falling, partial curve]",
COc1cc(C)c(Cl)cc1S(=O)(=O)N1CCSC1,"17.8 µM [rising, partial curve, poor fit]",
Cc1ccc(OCC(=O)N2CCN(c3nnc(-c4ccc(C)cc4)c4ccccc34)CC2)cc1,"16.4 µM [rising, single point]",
CCc1nnc(NC(=O)CCN(c2ccc(C)cc2)S(=O)(=O)c2ccccc2)s1,"18.4 µM [falling, partial curve, poor fit]",
CC(=O)NCCc1nc2cc(NC(=O)c3ccccc3)ccc2n1C,"7.08 µM [falling, partial curve]",
Cc1cc(C)cc(-n2nnn(C3C/C(=N/NC(N)=S)C4OCC3O4)c2=S)c1 (configuration not stated),"35.5 µM [falling, single point]",
Cc1ccccc1NC(=O)C1C2/C=C\CCCCC21 (configuration not stated),"0.58 µM [falling, full curve, poor fit]",
CCn1nc(C)c(NC(=O)CCSc2nc(-c3ccco3)cc(C(F)(F)F)n2)c1C,"35.5 µM [falling, single point]",
O=C1CCCc2[nH]nc(-c3cccnc3)c21,"0.731 µM [falling, full curve, poor fit]",
CCN(CC)S(=O)(=O)c1ccc(OC)c(NC(=O)c2ccc(N3CCCC3=O)cc2)c1,,"23.1 µM [falling, partial curve, poor fit]"
O=S(=O)(NCc1cccnc1)c1ccc(Cl)c2ccccc12,"5.01 µM [rising, single point]",
CCCn1c(-c2nonc2N)nc2ccccc21,,"3.66 µM [rising, partial curve, poor fit]"
CC1CCCCN1Cc1ccc(-c2nn[nH]n2)cc1 (configuration not stated),"29.1 µM [rising, single point]",
O=C(CSc1cn(CCNC(=O)c2cccs2)c2ccccc12)NC1CCCCC1,"14.6 µM [falling, partial curve, poor fit]",
CC1CC(C)(C)n2c(O)c(N=NC(N)=S)c3cccc1c32 (configuration not stated),"2 µM [rising, full curve, poor fit]","5.62 µM [falling, single point]"
COc1ccc(S(=O)(=O)Nc2ccc3c(c2)CC(=O)N([C@@H](C)CO)C[C@H](C)[C@@H](CN(C)S(=O)(=O)c2ccc(F)cc2)O3)cc1,"16.4 µM [rising, partial curve]",
O=c1[nH]ncc(N/N=C\c2cccnc2)c1Cl,"0.0891 µM [rising, full curve, poor fit]",
C=CCS/C(=N\n1cnc2ccccc2c1=O)N(CC)CC,"2.31 µM [rising, single point]",
Cc1ccc(CCNC(=O)CCn2nc(-c3ccc(C)cc3)ccc2=O)cc1,"0.251 µM [rising, full curve, poor fit]",

SMILES,AC50 [1],AC50 [2]
COc1cc(OC)c2c(-c3cccc(-c4ccc(OC(F)(F)F)cc4)c3)cc(=O)oc2c1,"23.1 µM [rising, single point]",
CCOc1ccc(NC(N)=O)cc1OCC,"9.2 µM [rising, partial curve]",
O=C(NNC(=O)c1cc(S(=O)(=O)N2CCCCC2)ccc1Cl)c1ccccc1O,"29.1 µM [falling, single point]",
COc1cccc2cc(-c3nc4ccccc4[nH]3)c(=O)oc12,"3.98 µM [falling, partial curve, poor fit]",
COc1cc2c(C#CCO)c(-c3ccc(C#N)cc3)oc(=O)c2cc1OC,"4.11 µM [falling, single point]",
Cc1nc2ccc(S(=O)(=O)NC(C(=O)NCc3ccc4c(c3)OCO4)C(C)C)cc2s1 (configuration not stated),"6.51 µM [rising, single point]",
O=C(c1cc(COc2c(F)cccc2F)on1)N1CCC(c2ccncc2)CC1,"4.47 µM [rising, full curve, poor fit]",
CCOC(=O)/C(C#N)=N/Nc1ccccc1C#N,"0.562 µM [rising, full curve, poor fit]",
O=C(NC(=O)N1CCN(c2ccccc2)CC1)c1ccc(Cl)cc1,"1.16 µM [rising, partial curve, poor fit]",
Cc1cc(NC(=O)CC2Oc3ccccc3NC2=O)ccc1Br (configuration not stated),"11.2 µM [falling, single point]",
COc1cc(/C=c2/sc3nc(-c4ccccc4)c(-c4ccccc4)n3c2=O)cc(OC)c1OC,"29.1 µM [falling, single point]",
O=C(C[n+]1ccccc1)Nc1c(Cl)cc(Cl)cc1Cl,"22.4 µM [falling, single point]",
CC1CNCCN1S(=O)(=O)c1cccc2cnccc12 (configuration not stated),"16.4 µM [falling, single point]","32.6 µM [rising, partial curve, poor fit]"
O=C(c1ccccc1)[C@@H]1[C@@H](C(=O)c2ccc(F)cc2)[C@@]2(C(=O)Nc3ccccc32)[C@H]2c3ccccc3C=CN12,"14.6 µM [falling, partial curve]","18.4 µM [rising, partial curve, poor fit]"
O=C(Nc1ccc(C(=O)NCc2ccccc2)cc1)C1=CSCCO1,"12.6 µM [rising, partial curve, poor fit]",
CCNCC(=O)N1c2ccccc2CCc2ccc(NC(C)=O)cc21,"25.9 µM [rising, single point]",
COC(=O)CC(N)c1ccc(OC)c2ccccc12 (configuration not stated),"16.4 µM [falling, single point]",
COc1ccc(CNC(=O)COC(=O)CCC(=O)c2cccs2)cc1,"6.31 µM [rising, single point]",
Cc1cccc(CN2CCN(C(c3ccccc3)c3ccc(Cl)cc3)CC2)c1 (configuration not stated),"31.6 µM [rising, single point]",
CC1CCN(C(=O)COC(=O)c2cc3ccccc3oc2=O)CC1,"6.51 µM [rising, single point]",

# A run of entries of the results above, as a working copy:
SMILES,AC50 [1],AC50 [2]
CC1CNCCN1S(=O)(=O)c1cccc2cnccc12 (configuration not stated),"16.4 µM [falling, single point]","32.6 µM [rising, partial curve, poor fit]"
O=C(c1ccccc1)[C@@H]1[C@@H](C(=O)c2ccc(F)cc2)[C@@]2(C(=O)Nc3ccccc32)[C@H]2c3ccccc3C=CN12,"14.6 µM [falling, partial curve]","18.4 µM [rising, partial curve, poor fit]"
O=C(Nc1ccc(C(=O)NCc2ccccc2)cc1)C1=CSCCO1,"12.6 µM [rising, partial curve, poor fit]",
CCNCC(=O)N1c2ccccc2CCc2ccc(NC(C)=O)cc21,"25.9 µM [rising, single point]",
COC(=O)CC(N)c1ccc(OC)c2ccccc12 (configuration not stated),"16.4 µM [falling, single point]",
